Measurements taken from the supplement of paper PMC12067093, “Discovery and optimisation of a covalent ligand for TRIM25 and its application to targeted protein ubiquitination” (Chemical Science, 2025).
Some of the results follow.

Chains of the proteins cited; added tags and fusions are not shown. Lines headed by an entry give the natural chain unless they say otherwise; changes in a name come on top.
UniProt O00329: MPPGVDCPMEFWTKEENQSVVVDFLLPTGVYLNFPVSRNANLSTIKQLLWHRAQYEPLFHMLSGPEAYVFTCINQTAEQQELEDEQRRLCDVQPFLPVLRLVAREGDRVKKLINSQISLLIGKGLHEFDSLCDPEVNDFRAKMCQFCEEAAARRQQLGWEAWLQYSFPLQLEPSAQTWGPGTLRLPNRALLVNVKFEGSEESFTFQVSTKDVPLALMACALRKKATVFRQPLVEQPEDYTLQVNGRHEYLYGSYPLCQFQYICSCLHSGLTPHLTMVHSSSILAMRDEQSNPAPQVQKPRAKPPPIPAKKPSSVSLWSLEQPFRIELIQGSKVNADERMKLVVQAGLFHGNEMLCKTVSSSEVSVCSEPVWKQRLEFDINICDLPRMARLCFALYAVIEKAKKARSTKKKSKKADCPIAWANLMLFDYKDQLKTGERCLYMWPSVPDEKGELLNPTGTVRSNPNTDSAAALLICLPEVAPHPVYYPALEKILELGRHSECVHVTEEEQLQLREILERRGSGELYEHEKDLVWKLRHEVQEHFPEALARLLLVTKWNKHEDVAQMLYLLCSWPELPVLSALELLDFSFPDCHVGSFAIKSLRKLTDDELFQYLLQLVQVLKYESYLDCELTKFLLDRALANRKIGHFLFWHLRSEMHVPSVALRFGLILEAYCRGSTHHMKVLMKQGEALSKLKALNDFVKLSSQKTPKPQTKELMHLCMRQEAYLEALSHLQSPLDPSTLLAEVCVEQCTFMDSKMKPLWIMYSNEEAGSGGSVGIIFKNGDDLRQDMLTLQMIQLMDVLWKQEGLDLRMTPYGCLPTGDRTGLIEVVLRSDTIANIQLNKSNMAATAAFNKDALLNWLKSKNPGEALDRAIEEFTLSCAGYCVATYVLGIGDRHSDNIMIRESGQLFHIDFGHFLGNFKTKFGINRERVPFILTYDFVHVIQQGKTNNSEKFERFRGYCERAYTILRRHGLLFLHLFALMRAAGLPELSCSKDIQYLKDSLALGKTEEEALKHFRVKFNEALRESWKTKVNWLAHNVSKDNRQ
UniProt O43175: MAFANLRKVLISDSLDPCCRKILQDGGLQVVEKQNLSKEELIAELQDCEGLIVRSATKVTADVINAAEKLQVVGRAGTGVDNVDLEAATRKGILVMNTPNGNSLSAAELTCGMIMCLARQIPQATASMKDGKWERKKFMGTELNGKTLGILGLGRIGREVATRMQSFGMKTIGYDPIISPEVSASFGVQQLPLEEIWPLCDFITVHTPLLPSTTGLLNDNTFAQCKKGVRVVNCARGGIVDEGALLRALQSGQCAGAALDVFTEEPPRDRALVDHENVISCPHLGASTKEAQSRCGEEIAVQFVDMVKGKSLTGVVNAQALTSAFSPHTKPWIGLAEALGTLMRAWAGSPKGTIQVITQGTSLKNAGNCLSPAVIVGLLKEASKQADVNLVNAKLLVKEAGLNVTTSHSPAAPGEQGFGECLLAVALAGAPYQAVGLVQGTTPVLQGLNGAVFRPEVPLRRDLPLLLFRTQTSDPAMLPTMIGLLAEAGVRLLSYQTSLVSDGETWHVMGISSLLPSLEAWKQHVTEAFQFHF
UniProt Q01813: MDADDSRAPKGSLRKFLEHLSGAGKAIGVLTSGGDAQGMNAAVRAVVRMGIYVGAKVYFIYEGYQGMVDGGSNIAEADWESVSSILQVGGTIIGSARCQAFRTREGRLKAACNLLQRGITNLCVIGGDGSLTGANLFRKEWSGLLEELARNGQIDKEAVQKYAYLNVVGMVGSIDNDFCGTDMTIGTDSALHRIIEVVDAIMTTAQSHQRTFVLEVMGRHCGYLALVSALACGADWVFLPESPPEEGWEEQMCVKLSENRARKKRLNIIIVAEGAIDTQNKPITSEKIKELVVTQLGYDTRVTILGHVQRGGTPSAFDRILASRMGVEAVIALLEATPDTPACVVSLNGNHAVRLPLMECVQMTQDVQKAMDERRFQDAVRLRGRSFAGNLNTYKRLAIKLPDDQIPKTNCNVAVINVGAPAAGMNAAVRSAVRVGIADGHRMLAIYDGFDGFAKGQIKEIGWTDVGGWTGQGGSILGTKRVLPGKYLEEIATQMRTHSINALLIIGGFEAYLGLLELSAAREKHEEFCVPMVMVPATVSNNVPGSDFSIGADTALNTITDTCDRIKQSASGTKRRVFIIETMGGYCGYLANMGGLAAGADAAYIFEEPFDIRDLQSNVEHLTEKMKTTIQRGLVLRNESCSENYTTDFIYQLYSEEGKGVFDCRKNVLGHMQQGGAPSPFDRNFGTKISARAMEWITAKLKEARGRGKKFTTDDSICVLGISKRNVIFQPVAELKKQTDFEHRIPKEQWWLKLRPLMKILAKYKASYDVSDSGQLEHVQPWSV
UniProt O96011: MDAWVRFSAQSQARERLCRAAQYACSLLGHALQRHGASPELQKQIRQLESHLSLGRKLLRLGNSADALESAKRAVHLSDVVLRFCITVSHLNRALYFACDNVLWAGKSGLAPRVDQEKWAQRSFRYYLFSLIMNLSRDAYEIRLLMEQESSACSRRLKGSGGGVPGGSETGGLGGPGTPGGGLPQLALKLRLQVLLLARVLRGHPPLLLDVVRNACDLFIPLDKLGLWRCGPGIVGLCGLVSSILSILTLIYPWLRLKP
UniProt Q16875: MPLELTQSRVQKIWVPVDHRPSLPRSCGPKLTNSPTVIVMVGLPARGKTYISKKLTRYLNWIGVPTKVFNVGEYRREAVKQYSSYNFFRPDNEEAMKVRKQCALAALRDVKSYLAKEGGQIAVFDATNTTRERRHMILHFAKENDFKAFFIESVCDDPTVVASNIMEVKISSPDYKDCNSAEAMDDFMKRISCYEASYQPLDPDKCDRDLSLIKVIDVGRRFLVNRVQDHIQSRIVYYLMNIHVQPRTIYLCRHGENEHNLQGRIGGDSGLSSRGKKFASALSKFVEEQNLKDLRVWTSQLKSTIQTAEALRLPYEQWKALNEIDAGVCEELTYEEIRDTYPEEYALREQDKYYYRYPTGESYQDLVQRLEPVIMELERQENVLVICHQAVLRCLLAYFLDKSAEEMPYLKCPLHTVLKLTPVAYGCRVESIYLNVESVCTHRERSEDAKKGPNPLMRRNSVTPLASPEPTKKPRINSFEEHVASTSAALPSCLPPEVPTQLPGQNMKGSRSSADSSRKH
UniProt P12955: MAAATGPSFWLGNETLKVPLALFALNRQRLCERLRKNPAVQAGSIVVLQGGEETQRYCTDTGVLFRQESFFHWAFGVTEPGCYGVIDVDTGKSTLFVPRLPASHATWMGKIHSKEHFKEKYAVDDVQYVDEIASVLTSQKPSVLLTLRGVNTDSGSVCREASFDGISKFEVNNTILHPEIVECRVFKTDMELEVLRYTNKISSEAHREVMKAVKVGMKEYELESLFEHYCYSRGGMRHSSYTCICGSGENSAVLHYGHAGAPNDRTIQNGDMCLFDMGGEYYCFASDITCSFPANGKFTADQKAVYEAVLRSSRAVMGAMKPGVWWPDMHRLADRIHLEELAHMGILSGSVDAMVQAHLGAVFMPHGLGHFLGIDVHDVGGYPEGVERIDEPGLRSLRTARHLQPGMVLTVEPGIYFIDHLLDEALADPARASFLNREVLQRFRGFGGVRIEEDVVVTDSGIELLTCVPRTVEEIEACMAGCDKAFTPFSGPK
UniProt Q9UPP1: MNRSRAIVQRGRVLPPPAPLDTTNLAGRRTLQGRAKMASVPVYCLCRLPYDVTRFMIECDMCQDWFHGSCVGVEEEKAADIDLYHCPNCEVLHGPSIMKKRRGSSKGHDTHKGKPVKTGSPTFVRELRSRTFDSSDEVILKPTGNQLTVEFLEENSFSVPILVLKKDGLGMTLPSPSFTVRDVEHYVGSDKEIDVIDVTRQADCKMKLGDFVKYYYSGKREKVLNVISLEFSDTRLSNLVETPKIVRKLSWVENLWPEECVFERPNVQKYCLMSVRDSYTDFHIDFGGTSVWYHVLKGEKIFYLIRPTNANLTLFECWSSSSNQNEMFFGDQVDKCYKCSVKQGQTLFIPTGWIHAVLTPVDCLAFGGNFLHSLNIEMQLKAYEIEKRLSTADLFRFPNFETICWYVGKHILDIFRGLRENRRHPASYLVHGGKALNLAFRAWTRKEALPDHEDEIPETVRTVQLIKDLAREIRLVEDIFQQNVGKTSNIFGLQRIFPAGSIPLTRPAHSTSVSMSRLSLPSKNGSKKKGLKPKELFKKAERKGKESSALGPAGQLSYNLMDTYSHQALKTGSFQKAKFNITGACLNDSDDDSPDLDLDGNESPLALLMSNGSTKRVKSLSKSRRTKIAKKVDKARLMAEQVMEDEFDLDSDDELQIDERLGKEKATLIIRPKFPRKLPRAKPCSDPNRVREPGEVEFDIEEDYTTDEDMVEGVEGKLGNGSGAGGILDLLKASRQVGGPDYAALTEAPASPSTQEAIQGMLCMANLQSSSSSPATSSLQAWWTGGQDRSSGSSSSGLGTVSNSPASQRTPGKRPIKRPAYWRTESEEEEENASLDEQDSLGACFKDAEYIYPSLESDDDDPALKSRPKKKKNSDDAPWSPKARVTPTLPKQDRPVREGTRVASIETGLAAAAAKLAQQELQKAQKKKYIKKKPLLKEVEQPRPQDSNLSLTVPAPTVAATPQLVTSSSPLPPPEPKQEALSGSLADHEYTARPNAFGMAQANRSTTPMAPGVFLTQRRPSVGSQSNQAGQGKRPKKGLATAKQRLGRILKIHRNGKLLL
UniProt O95336: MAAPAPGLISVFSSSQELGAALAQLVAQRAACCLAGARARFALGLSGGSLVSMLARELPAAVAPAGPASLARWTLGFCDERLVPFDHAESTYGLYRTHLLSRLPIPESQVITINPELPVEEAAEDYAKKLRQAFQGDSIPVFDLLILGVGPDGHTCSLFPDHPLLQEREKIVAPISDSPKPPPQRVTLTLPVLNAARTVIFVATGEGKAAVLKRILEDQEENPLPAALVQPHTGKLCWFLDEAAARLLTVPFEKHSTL
UniProt Q8N2W9: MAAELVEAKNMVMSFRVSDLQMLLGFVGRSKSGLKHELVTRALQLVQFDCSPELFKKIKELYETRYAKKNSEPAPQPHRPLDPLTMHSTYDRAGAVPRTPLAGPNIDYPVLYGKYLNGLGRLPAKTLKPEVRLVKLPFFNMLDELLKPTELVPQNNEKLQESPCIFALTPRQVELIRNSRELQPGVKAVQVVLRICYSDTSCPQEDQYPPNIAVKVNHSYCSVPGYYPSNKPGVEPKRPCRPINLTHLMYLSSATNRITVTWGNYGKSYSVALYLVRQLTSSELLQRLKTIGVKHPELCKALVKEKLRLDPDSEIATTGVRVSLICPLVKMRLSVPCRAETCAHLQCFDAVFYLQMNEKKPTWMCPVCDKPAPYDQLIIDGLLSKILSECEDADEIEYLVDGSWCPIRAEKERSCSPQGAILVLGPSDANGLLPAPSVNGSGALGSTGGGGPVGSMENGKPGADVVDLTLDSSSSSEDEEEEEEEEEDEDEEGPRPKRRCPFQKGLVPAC
UniProt Q7RTV0, whole entry, looked up: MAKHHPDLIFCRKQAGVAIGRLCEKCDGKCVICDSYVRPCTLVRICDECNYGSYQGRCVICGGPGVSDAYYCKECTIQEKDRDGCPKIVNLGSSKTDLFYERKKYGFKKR
UniProt O94880: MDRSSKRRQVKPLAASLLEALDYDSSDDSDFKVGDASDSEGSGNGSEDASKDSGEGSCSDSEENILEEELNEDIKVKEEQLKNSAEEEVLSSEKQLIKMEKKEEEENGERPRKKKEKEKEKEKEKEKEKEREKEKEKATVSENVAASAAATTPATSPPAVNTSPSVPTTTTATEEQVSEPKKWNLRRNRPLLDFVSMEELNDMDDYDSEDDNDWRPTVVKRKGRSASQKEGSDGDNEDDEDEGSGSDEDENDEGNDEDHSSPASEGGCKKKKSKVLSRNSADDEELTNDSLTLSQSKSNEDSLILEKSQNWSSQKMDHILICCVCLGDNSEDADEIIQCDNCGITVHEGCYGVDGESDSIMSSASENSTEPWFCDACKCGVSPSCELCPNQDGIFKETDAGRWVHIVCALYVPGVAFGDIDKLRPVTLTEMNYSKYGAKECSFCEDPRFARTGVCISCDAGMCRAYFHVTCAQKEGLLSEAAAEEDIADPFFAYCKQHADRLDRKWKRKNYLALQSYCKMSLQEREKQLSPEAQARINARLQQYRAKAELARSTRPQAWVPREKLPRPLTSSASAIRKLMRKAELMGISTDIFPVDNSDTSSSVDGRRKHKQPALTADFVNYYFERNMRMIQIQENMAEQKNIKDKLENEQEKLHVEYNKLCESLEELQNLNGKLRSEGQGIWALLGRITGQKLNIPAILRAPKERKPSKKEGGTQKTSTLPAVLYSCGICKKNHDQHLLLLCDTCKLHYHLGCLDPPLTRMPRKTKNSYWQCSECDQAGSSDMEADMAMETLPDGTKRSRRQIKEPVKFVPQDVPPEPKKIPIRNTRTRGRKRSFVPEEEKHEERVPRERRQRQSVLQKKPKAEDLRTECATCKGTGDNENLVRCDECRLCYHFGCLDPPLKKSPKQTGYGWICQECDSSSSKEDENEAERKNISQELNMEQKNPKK

Compound: Cc1cc(ccc1-c1ccccc1)C(=O)N1CCCN(CC1)C(=O)CCl [compound 10]
Test: probe-labelled cysteine peptide fold change vs DMSO (competition) (log2 fold change); higher = less target engagement (more negative = stronger competition)
Conditions: THP-1, incubation time: 4 h
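Note: competitive profiling in live THP-1 cells: cysteine peptides tagged with an iodoacetamide desthiobiotin (IA-DTB) probe, intensity after compound treatment relative to DMSO-treated cells.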

Row | Target | probe-labelled cysteine peptide fold change (10 µM) | probe-labelled cysteine peptide fold change (50 µM)
1 | PIK3CD_O00329_132_GLHEFDSLCDPEVNDFR (UniProt O00329) | -0.0244 | -0.215
2 | PIK3CA_P42336_215_INHDCVPEQVIAEAIR (UniProt P42336) | 0.0827 | 0.255
3 | PGD_P52209_170+171_VGTGEPCCDWVGDEGAGHFVK (UniProt P52209) | -0.303 | -0.985
4 | PHGDH_O43175_254_ALQSGQCAGAALDVFTEEPPRDR (UniProt O43175) | -0.0942 | 0.023
5 | PIK3CB_P42338_626_EYAVGCLR (UniProt P42338) | 0.264 | 0.172
6 | PGGT1B_P53609_338_WPDSHPDALHAYFGICGLSLMEESGICK (UniProt P53609) | 0.0199 | -0.0361
7 | PFKP_Q01813_360_LPLMECVQMTQDVQK (UniProt Q01813) | 0.112 | 0.00538
8 | PEX14_O75381_342_REDKEDEEDEEDDDVSHVDEEDCLGVQR (UniProt O75381) | 0.213 | 0.344
9 | PFDN5_Q99471_49_DCLNVLNK (UniProt Q99471) | 0.21 | 0.0309
10 | PIGH_Q14442_166_LDCLIEVYR (UniProt Q14442) | -0.0537 | 0.0701
11 | PFAS_O15067_1044_MGPSYCLPPTFPK (UniProt O15067) | -0.165 | 0.101
12 | PEX11B_O96011_18+25_LCRAAQYACSLLGHALQRHGASPELQK (UniProt O96011) | 0.0027 | -0.126
13 | PFKFB3_Q16875_387_LEPVIMELERQENVLVICHQAVLR (UniProt Q16875) | 0.209 | -0.0964
14 | PEPD_P12955_467_IEEDVVVTDSGIELLTCVPR (UniProt P12955) | 0.413 | 0.132
15 | PGM3_O95394_168_LSQSVIDGVTVLGGQFHDYGLLTTPQLHYMVYCR (UniProt O95394) | 0.0651 | 0.146
16 | PHF3_Q92576_885_ESTTVTCTGEK (UniProt Q92576) | -0.118 | -0.51
17 | PHF8_Q9UPP1_89_AADIDLYHCPNCEVLHGPSIMK (UniProt Q9UPP1) | 0.0843 | 0.0538
18 | PGP_A6NDG6_217_FIAGTGCLVR (UniProt A6NDG6) | 0.0649 | 0.0408
19 | PGLS_O95336_78_WTLGFCDER (UniProt O95336) | 0.0732 | 0.168

Row | Target | probe-labelled cysteine peptide fold change (10 µM) | probe-labelled cysteine peptide fold change (50 µM)
20 | PHGDH_O43175_111_GILVMNTPNGNSLSAAELTCGMIMCLAR (UniProt O43175) | 0.128 | 0.0721
21 | PEX11B_O96011_25_AAQYACSLLGHALQR (UniProt O96011) | 0.166 | 0.0421
22 | PIAS4_Q8N2W9_390+405_ILSECEDADEIEYLVDGSWCPIR (UniProt Q8N2W9) | -0.493 | 0.228
23 | PI4K2A_Q9BTU6_124_CIFPER (UniProt Q9BTU6) | 0.154 | 0.216
24 | PHF5A_Q7RTV0_46_ICDECNYGSYQGR (UniProt Q7RTV0) | -0.00469 | -0.327
25 | PHF5A_Q7RTV0_75_ECTIQEK (UniProt Q7RTV0) | -0.0797 | -0.327
26 | PIK3AP1_Q6ZUJ8_358_NLTALLLTCPGALQAYSVANK (UniProt Q6ZUJ8) | 0.0198 | -0.242
27 | PEX1_O43933_310_HCAIHVFPWDQEYFDVEPSFTVTYGK (UniProt O43933) | -0.0827 | -0.0268
28 | PFKL_P17858_114_RAAAYNLVQHGITNLCVIGGDGSLTGANIFR (UniProt P17858) | 0.0296 | 0.0301
29 | PGAM1_P18669_153_YADLTEDQLPSCESLK (UniProt P18669) | -0.0615 | 0.153
30 | PHF6_Q8IWS0_305_TYHYHCGVQDK (UniProt Q8IWS0) | -0.0169 | 0.0111
31 | PHYKPL_Q8IUZ5_416_FKPPMCFSLDNAR (UniProt Q8IUZ5) | 0.0387 | -0.103
32 | PEX7_O00628_207_IVIPAHQAEILSCDWCK (UniProt O00628) | -0.193 | -0.386
33 | PHRF1_Q9P1Y6_145_NANSCPVDR (UniProt Q9P1Y6) | -0.175 | -0.162
34 | PHF14_O94880_754_LHYHLGCLDPPLTR (UniProt O94880) | -0.0058 | -0.0102
35 | PIAS4_Q8N2W9_50_ALQLVQFDCSPELFK (UniProt Q8N2W9) | -0.0498 | 0.0618
36 | PHKB_Q93100_280_QTLCSLLPR (UniProt Q93100) | 0.0194 | 0.168
37 | PFKP_Q01813_123_GITNLCVIGGDGSLTGANLFRK (UniProt Q01813) | -0.0443 | -0.357
